At least one compound was matched to its structure with a doubt left.
System: IL-12p70 production
Assay: IL-12p70 induction in IFN-gamma-primed macrophages, ELISA
Format: cell-based, mouse
Conditions: C5aRA 1 μM; U0126 10 μM; wortmannin 100 nM
Procedure: Induction of nitric oxide production was assessed by measuring the amount of NO2− (stable metabolite of nitric oxide) in stimulated culture supernatants using a Griess reaction-based assay kit (R&D Systems), as previously performed (Hajishengallis et al., 2008, PNAS USA, 105:13532-7). Levels of cAMP in activated cell extracts were measured using a cAMP enzyme immunoassay kit (Cayman Chemical) (Liang et al., 2007, J. Immunol., 178:4811-9). C5a-induced intracellular calcium mobilization was monitored in cells (4×10^6) loaded with 1 μM Indo 1-AM in the presence of 1 μM pluronic acid, as previously described (Ali et al., 1993, J. Biol. Chem., 268:24247-54). Calcium traces were recorded in a Perkin-Elmer fluorescence spectrometer (Model 650-19) with an excitation wavelength of 355 nm and an emission wavelength of 405 nm. Induction of cytokine production in activated cell culture supernatants or in the peritoneal fluid of infected mice was determined by ELISA using kits from eBioscience or Cell Sciences. C5a levels were measured by sandwich ELISA, employing a pair of capture and biotinylated anti-05a mAbs (BD Pharmingen), according to the manufacturer's protocol.
Whether C5a inhibits P. gingivalis-induced IL-12p70 in peritoneal macrophages was investigated. […]

COC[C@H]1OC(=O)c2coc3c2[C@@]1(C)C1=C(C3=O)[C@@H]2CCC(=O)[C@@]2(C)C[C@H]1OC(C)=O [wortmannin]
LPS-induced IL-12p70 without C5a: up-regulated

— US20160084820A1, “METHODS OF TREATING OR PREVENTING PERIODONTITIS AND DISEASES ASSOCIATED WITH PERIODONTITIS” (priority 2010, published 2016)
